{"source": "PubChem BioAssay AID1159584 (Peter MacCallum Cancer Centre, 2016)", "purpose": "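Knock-downs that harm CDH1-null cells more than parental MCF10A cells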 (primary screen)", "system": "human MCF10A breast epithelial cells, parental and CDH1-null", "reagent": "siRNA against human genes", "read-out": "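Cell viability by CellTiter-Glo ATP luminescence, each line scaled to the mean of mock wells across plates, then CDH1-null over parental ratio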", "scale": "CDH1-null / parental viability ratio: higher = CDH1-null cells survive relatively better than parental; CDH1-null viability vs mock: higher = more viable CDH1-null cells", "note": "The whole screen tested about 18,000 reagents; shown is a part drawn at random. Not all columns of the deposit are shown. Not stated in the record: the amount of reagent, the time to read-out."}
{"Gene":"ANO8 (anoctamin 8)","CDH1-null / parental viability ratio":1.15,"CDH1-null viability vs mock (fraction of mock)":0.53}
{"Gene":"SEC24C (SEC24 homolog C, COPII component)","CDH1-null / parental viability ratio":1.07,"CDH1-null viability vs mock (fraction of mock)":0.88}
{"Gene":"CLCN1 (chloride voltage-gated channel 1)","CDH1-null / parental viability ratio":1.59,"CDH1-null viability vs mock (fraction of mock)":0.73}
{"Gene":"TMC5 (transmembrane channel like 5)","CDH1-null / parental viability ratio":1.16,"CDH1-null viability vs mock (fraction of mock)":1.04}
{"Gene":"FAM161B (FAM161 centrosomal protein B)","CDH1-null / parental viability ratio":0.83,"CDH1-null viability vs mock (fraction of mock)":0.7}
{"Gene":"CHIA (chitinase acidic)","CDH1-null / parental viability ratio":1.05,"CDH1-null viability vs mock (fraction of mock)":1.07}
{"Gene":"ANXA2R (annexin A2 receptor)","CDH1-null / parental viability ratio":0.96,"CDH1-null viability vs mock (fraction of mock)":0.73}
{"Gene":"AAAS (aladin WD repeat nucleoporin)","CDH1-null / parental viability ratio":0.98,"CDH1-null viability vs mock (fraction of mock)":0.59}
{"Gene":"FAM171A1 (family with sequence similarity 171 member A1)","CDH1-null / parental viability ratio":1.09,"CDH1-null viability vs mock (fraction of mock)":1}
{"Gene":"PPARG (peroxisome proliferator activated receptor gamma)","CDH1-null / parental viability ratio":1.12,"CDH1-null viability vs mock (fraction of mock)":1.01}
{"Gene":"IL15RA (interleukin 15 receptor subunit alpha)","CDH1-null / parental viability ratio":1.32,"CDH1-null viability vs mock (fraction of mock)":0.66}
{"Gene":"YWHAG","CDH1-null / parental viability ratio":0.64,"CDH1-null viability vs mock (fraction of mock)":0.29}
{"Gene":"SOX3 (SRY-box transcription factor 3)","CDH1-null / parental viability ratio":1.01,"CDH1-null viability vs mock (fraction of mock)":0.88}
{"Gene":"GNRH1 (gonadotropin releasing hormone 1)","CDH1-null / parental viability ratio":0.88,"CDH1-null viability vs mock (fraction of mock)":0.73}
{"Gene":"SREBF1 (sterol regulatory element binding transcription factor 1)","CDH1-null / parental viability ratio":1.05,"CDH1-null viability vs mock (fraction of mock)":0.92}
{"Gene":"ABI2 (abl interactor 2)","CDH1-null / parental viability ratio":0.89,"CDH1-null viability vs mock (fraction of mock)":0.78}
{"Gene":"ZNF550 (zinc finger protein 550)","CDH1-null / parental viability ratio":1.76,"CDH1-null viability vs mock (fraction of mock)":1.04}
{"Gene":"C3AR1 (complement C3a receptor 1)","CDH1-null / parental viability ratio":1.3,"CDH1-null viability vs mock (fraction of mock)":0.9}
{"Gene":"SPO11 (SPO11 initiator of meiotic double strand breaks)","CDH1-null / parental viability ratio":1.13,"CDH1-null viability vs mock (fraction of mock)":0.77}
{"Gene":"ZNF781 (zinc finger protein 781 (pseudogene))","CDH1-null / parental viability ratio":0.98,"CDH1-null viability vs mock (fraction of mock)":0.92}
{"Gene":"MYO1A (myosin IA)","CDH1-null / parental viability ratio":1.09,"CDH1-null viability vs mock (fraction of mock)":0.98}
{"Gene":"SPRY4 (sprouty RTK signaling antagonist 4)","CDH1-null / parental viability ratio":1,"CDH1-null viability vs mock (fraction of mock)":0.6}
{"Gene":"NIPAL3 (NIPA like domain containing 3)","CDH1-null / parental viability ratio":0.84,"CDH1-null viability vs mock (fraction of mock)":0.9}
{"Gene":"NPFFR1 (neuropeptide FF receptor 1)","CDH1-null / parental viability ratio":0.82,"CDH1-null viability vs mock (fraction of mock)":0.81}

A few values from the list:
ANXA2R (annexin A2 receptor), CDH1-null viability vs mock (fraction of mock): 0.73
Under “CDH1-null / parental viability ratio”, SOX3 (SRY-box transcription factor 3) reads 1.01
